PubChem BioAssay AID1159578 | Peter MacCallum Cancer Centre | 2015
Screen: 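siRNA pools altering how lymphatic endothelial cells close a scratch wound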 (primary screen). Cells: human lymphatic endothelial cells. Knock-down reagent: siRNA pool against human genes, 40 nM. Time to read-out: 48 h after transfection. Measurement: 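Cells stained with dye and imaged after a scratch; covered wound area and nuclei counted, duplicates averaged, migration set against mock wells and turned into a robust z-score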. Direction: migration robust z-score: higher = faster migration into the scratch; nuclei per well: higher = more cells in the well. Call rule: 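Migration changed when robust z exceeds 2 or falls below -2 and mean nuclei number is at least 3300; otherwise not called changed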. Meaning of the calls: active = migration changed; inactive = no migration change, or too few cells.
The deposit covers about 18,000 reagents; below is a part drawn at random. About 1,030 of them (5.7%) count as active. 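Inactive calls also include pools with fewer than 3300 nuclei, whose migration was not assessed.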 Raw values vary from plate to plate and are shown uncorrected. Not all columns of the deposit are shown. No sequences are given here.

Target gene,migration robust z-score,"nuclei per well, duplicate mean",call
KAZN,-0.66,5912,inactive
PTPMT1,-0.42,6425,inactive
TMX2,-1.66,5408,inactive
CCDC97,-0.02,6705,inactive
NNAT,-0.57,5668,inactive
TEX2,-0.26,6258,inactive
APOA4,-1.74,5537,inactive
DCANP1,-0.61,5002,inactive
LMBRD1,-0.38,6409,inactive
SERGEF,-1.05,5470,inactive
TRIM3,-0.49,4820,inactive
SMAD9,-0.62,3600,inactive
RIOX2,-0.95,5261,inactive
ETV6,0.73,4608,inactive
ARID4A,1.43,5614,inactive
OR51M1,0.46,5804,inactive
CLDN16,1.12,5472,inactive
ATOSA,-0.08,5359,inactive
KLHL4,0.38,4970,inactive
MCCC1,-0.18,6136,inactive
C1QB,0.98,6158,inactive
CBLIF,-0.28,5060,inactive
METTL21A,0.05,6292,inactive
VIL1,-0.71,5638,inactive
DIDO1,0.6,4884,inactive
CASZ1,-1.07,6105,inactive
LCE3A,0.42,5132,inactive
CHRNB2,-0.9,5618,inactive
FH,0.06,7622,inactive
RAB10,0,5436,inactive
MOGAT2,-0.13,5908,inactive
GRIK1,0.49,5071,inactive
AKR1B1,-1.25,5450,inactive
HOXC8,0.74,5700,inactive
IFNK,-2.55,2967,inactive
CER1,0.29,6908,inactive
RELB,0.24,5302,inactive
GAA,1.14,6518,inactive
CALU,0.38,5242,inactive
RBX1,-0.5,7456,inactive
ZNF691,0.87,6234,inactive
CYP20A1,-0.29,5086,inactive
PCDHGC4,-0.66,6632,inactive
OBI1,0.36,5490,inactive
KDM2A,-0.68,5018,inactive
TNS4,0.12,5872,inactive
SKIC2,0.64,4779,inactive
SLC25A41,-3.48,1853,inactive
SIVA1,0.42,4541,inactive
SPHK1,0.1,4903,inactive
SPIDR,-0.9,4922,inactive
RIBC2,-0.53,6124,inactive
PLLP,-1.24,4187,inactive
RABEP1,0.12,5852,inactive
ZNF324B,1.3,5445,inactive
LMF2,0.77,5368,inactive
SMC6,-0.06,6138,inactive

Copied from the list.
SMC6, nuclei per well, duplicate mean = 6138
For “migration robust z-score”, CBLIF shows -0.28
Under “migration robust z-score”, PTPMT1 reads -0.42
For “call”, MCCC1 has inactive
Entry of AKR1B1 under “call”: inactive
KLHL4, nuclei per well, duplicate mean → 4970
